Data taken from patent US20240102023.
For some assays here: For at least one entry, the source does not settle the construct or the ends of the probe. For some assays here: A negative result means that nothing was seen under these conditions.

Amino acid sequences for entries named in this document (tags omitted).
UniProt Q15648, whole entry: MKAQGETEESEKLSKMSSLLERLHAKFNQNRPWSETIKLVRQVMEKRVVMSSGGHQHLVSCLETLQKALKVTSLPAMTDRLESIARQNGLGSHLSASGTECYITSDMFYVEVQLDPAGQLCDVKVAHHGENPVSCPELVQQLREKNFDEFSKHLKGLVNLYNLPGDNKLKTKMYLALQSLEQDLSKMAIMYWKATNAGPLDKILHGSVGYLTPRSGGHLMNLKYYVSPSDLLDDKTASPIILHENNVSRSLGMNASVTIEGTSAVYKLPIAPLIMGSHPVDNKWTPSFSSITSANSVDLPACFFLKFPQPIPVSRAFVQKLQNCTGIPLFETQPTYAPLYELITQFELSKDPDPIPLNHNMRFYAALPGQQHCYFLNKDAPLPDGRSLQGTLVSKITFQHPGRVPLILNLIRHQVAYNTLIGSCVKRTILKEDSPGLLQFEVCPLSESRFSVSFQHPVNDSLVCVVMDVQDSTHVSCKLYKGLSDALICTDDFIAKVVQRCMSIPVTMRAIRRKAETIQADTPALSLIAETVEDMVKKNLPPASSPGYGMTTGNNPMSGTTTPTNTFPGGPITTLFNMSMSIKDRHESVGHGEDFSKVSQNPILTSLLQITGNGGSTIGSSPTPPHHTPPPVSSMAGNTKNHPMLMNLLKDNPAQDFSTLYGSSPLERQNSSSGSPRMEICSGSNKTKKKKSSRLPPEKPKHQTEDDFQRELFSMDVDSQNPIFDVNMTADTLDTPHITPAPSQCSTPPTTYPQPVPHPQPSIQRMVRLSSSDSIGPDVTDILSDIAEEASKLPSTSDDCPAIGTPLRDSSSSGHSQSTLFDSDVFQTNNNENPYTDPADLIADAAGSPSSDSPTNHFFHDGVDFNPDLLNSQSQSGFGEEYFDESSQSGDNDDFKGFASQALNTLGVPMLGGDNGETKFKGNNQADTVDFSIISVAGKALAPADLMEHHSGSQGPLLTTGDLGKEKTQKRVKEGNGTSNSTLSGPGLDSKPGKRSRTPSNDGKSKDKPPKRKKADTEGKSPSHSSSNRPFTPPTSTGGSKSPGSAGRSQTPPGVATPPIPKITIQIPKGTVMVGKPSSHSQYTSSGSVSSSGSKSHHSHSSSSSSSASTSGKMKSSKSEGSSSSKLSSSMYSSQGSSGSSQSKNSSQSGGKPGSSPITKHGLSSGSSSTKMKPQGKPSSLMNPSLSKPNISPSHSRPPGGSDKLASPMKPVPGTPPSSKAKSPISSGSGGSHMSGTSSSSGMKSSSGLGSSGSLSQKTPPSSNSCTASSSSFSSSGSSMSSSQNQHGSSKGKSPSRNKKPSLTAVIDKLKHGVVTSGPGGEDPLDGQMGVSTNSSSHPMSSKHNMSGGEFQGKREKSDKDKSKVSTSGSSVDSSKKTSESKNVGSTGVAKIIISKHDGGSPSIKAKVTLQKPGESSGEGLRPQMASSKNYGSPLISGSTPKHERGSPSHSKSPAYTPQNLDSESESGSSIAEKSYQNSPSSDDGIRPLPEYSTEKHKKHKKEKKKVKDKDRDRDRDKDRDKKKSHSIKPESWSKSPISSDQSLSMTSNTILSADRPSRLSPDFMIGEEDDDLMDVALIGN

Key:
[1] = test system: MED1 Mutant (LXXAA motif protein); assay: pull-down; conditions: 2'-F on U and C; LXXAA mutant control; purified recombinant protein; protein details: immobilized
[2] = test system: MED1 WT (LXXLL motif protein); assay: pull-down; conditions: 2'-F on U and C, 2 h 4 C, BC150 wash, purified recombinant protein
[3] = test system: MED1 WT (LXXLL motif protein); assay: inhibition of the protein; conditions: 2'-F on U and C, purified recombinant protein, dose not given here
[4] = biological target: MED1 (nuclear extract) (Homo sapiens) (UniProt Q15648); assay: inhibition of the protein; conditions: 2'-F on U and C; 2 ug SP disrupts ER/MED1 from HeLa nuclear extract; protein in an extract; protein details: HeLa nuclear extract; variant of Aptamer P

Question: Which results are given for “GGAAGACACGAGAGGAUCCACGCGAUGGGUAAUCAACUGCAUCUCCCGUACAGGUUACCACAGAAUUCAGACGAGCUGUGC [Aptamer B]”?
Answer: binding result [1]: no binding; binding result ([2]; immobilized protein, constant flanks possibly present): binds; functional effect of the aptamer [3]: active

Question: Does “GGAAGACACGAGAGGAUCCACCUUUUCGGGUCCCGUUUAACCUUGUUAACCGUCUUCCUGCCAGAAUUCAGACGAGCUGUGC [Aptamer K]” bind [1]?
Answer: no binding

Question: Does “GGAAGACACGAGAGGAUCCACCUUUUCGGGUCCCGUUUAACCUUGUUAACCGUCUUCCUGCCAGAAUUCAGACGAGCUGUGC [Aptamer K]” bind [2]?
Answer: binds

Question: What about the “functional effect of the aptamer” value [3] of the same sequence?
Answer: active

Question: Does “GGAAGACACGAGAGGAUCCACUGACAUGUGACUGGAGUUCAGACGUGUGCUCUUCCGAUCUCAGAAUUCAGACGAGCUGUGC [Aptamer X]” bind [1]?
Answer: no binding

Question: Does “GGAAGACACGAGAGGAUCCACUGACAUGUGACUGGAGUUCAGACGUGUGCUCUUCCGAUCUCAGAAUUCAGACGAGCUGUGC [Aptamer X]” bind [2]?
Answer: binds

Question: And the “functional effect of the aptamer” value [3]?
Answer: active

Question: Does “GGAAGACACGAGAGGAUCCACCUUUUCGGAUGGAGAUGCUUUGUCAUUUGUGUCUUGCACCAGAAUUCAGACGAGCUGUGC [Aptamer O]” bind [1]?
Answer: no binding

Question: Does “GGAAGACACGAGAGGAUCCACCUUUUCGGAUGGAGAUGCUUUGUCAUUUGUGUCUUGCACCAGAAUUCAGACGAGCUGUGC [Aptamer O]” bind [2]?
Answer: binds

Question: What about the “functional effect of the aptamer” value [3] of the same sequence?
Answer: active

Question: “GAAGACACGAGAGGAUCCACAUUUUCGGAUCAGUGCGCUUUGACGCAAUCUUC [MED1SP (shortened P)]” was tested. Which “functional effect of the aptamer” value [4] did it give?
Answer: active

Question: And the “functional effect of the aptamer” value ([3]; blocks GST-ER/MED1 WT interaction in GST pull-down, 4 h 4 C, E2, variant of Aptamer P)?
Answer: active

Question: What does the source list for “GGAAGACACGAGAGGAUCCACCAUUUUCGGAUCAGUGCGCUUUGACGCAAUCUUCCACAACCAGAAUUCAGACGAGCUGUGC [Aptamer P]”?
Answer: binding result [1]: no binding; binding result ([2]; full P with flanks printed as SEQ 11): binds; functional effect of the aptamer [3]: active

Question: Does “GGAAGACACGAGAGGAUCCACCGGAAAGGCGAGAGUGUUCAAAGAACCAGCAGUCCACAAUCAGAAUUCAGACGAGCUGUGC [Aptamer G]” bind [1]?
Answer: no binding

Question: Does “GGAAGACACGAGAGGAUCCACCGGAAAGGCGAGAGUGUUCAAAGAACCAGCAGUCCACAAUCAGAAUUCAGACGAGCUGUGC [Aptamer G]” bind [2]?
Answer: binds

Question: And the “functional effect of the aptamer” value [3]?
Answer: active
